Patent US20040248129A1, “Rhesus monkey, dog and feeret melanin-concentrating hormone type 1 receptor” (priority 2001, published 2004)
These are yes or no findings as the source states them, for the method shown. Some results given as binding are weak or reduced against the parent protein; the word gives no strength.

Chains of the proteins cited; added tags and fusions are not shown. Lines headed by an entry give the natural chain unless they say otherwise; changes in a name come on top.
UniProt Q8MJ89: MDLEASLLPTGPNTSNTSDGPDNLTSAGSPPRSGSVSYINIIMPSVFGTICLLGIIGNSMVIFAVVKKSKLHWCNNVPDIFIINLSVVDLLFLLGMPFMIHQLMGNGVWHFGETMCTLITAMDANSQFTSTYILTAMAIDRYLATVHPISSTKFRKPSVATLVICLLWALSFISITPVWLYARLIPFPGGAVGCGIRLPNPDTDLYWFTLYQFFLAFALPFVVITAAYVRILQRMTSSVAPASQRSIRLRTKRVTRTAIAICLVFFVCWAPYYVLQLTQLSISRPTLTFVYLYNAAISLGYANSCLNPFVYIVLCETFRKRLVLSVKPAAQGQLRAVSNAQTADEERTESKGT
UniProt P20382: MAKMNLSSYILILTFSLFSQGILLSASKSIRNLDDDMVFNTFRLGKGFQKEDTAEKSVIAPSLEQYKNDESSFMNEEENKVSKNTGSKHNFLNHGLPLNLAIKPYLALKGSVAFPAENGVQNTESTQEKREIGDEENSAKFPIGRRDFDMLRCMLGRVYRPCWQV

Biological target: rhesus monkey MCH-1R (melanin-concentrating hormone type 1 receptor) (rhesus monkey) (UniProt Q8MJ89)
Test: radioligand binding, 100 pM, on adherent transfected HEK293T cells

## DFDMLRCMLGRVYRPCWQV (peptide, UniProt P20382 147-165, looked up, 125I radiolabel (position not given)) [[^125I]-MCH]
  binding: binds
